Experiment: Real sample analysis: determination of Cr^3+ in spiked tap water by emission

With `C=CCN(CC=C)CCN1C(=O)c2ccccc2C12c1ccc(N(CC)CC)cc1Oc1cc(N(CC)CC)ccc12` [Ligand L1] the “Cr^3+ Found” value (pH 7.2, Cr^3+ added 10 μM) was 9.81 µM and the “Cr^3+ Found” value (pH 7.2, Cr^3+ added 20 μM) was 19.67 µM.

From patent US9823232B2, “Ligand for detection of chromium (III) and a process for the preparation thereof” (COUNCIL OF SCIENTIFIC & INDUSTRIAL RESEARCH, priority 2013, dated 2017)
